The other results are listed elsewhere or left out.
Compound: Cc1cc(ccc1-c1ccccc1)C(=O)N1CCCN(CC1)C(=O)CCl [compound 10]
Assay: probe-labelled cysteine peptide fold change vs DMSO (competition) (log2 fold change); higher = less target engagement (more negative = stronger competition)
Settings: THP-1, incubation time: 4 h
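Also: competitive profiling in live THP-1 cells: cysteine peptides tagged with an iodoacetamide desthiobiotin (IA-DTB) probe, intensity after compound treatment relative to DMSO-treated cells.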

Sequences of proteins named here, by UniProt entry; tags and fusion partners are left off. A change or cut given only in a name is not applied to a line headed by its entry.
UniProt O43294, whole entry, looked up: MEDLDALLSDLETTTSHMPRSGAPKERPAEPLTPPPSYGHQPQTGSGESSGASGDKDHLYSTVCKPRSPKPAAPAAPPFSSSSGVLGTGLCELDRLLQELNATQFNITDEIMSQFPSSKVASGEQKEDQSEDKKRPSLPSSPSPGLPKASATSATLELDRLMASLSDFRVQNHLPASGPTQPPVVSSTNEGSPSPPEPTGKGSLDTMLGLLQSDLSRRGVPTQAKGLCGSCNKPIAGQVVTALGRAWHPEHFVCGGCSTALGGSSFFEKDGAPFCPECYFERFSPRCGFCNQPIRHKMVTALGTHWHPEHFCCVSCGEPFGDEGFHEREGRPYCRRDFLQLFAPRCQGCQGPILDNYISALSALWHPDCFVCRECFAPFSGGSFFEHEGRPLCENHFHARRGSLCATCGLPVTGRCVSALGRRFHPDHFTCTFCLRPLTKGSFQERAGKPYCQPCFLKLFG
UniProt P29401: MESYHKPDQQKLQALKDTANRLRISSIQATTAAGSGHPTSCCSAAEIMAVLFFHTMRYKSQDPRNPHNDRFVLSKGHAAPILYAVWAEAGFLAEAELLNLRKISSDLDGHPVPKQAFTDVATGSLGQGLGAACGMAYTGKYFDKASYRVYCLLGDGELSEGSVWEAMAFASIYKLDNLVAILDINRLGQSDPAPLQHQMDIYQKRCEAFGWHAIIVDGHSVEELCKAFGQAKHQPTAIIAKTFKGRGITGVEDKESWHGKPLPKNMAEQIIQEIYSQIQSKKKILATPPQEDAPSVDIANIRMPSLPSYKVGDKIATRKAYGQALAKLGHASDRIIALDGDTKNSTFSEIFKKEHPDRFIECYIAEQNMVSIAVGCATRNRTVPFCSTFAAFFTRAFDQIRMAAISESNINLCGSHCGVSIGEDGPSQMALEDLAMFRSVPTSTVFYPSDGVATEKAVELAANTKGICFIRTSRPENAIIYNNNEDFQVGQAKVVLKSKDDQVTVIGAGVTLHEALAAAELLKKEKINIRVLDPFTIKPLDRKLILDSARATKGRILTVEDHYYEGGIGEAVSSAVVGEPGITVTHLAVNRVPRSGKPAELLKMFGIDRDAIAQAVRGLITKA
UniProt Q86W42: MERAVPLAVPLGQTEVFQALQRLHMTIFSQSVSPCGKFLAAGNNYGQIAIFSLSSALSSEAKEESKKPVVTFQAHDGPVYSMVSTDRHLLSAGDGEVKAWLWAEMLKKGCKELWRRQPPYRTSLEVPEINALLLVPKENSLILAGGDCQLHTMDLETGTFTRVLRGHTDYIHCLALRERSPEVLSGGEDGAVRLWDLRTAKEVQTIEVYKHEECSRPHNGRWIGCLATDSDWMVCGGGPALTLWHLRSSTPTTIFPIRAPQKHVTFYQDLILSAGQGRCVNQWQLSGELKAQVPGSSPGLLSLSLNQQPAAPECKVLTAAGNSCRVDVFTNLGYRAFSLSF
UniProt Q04726: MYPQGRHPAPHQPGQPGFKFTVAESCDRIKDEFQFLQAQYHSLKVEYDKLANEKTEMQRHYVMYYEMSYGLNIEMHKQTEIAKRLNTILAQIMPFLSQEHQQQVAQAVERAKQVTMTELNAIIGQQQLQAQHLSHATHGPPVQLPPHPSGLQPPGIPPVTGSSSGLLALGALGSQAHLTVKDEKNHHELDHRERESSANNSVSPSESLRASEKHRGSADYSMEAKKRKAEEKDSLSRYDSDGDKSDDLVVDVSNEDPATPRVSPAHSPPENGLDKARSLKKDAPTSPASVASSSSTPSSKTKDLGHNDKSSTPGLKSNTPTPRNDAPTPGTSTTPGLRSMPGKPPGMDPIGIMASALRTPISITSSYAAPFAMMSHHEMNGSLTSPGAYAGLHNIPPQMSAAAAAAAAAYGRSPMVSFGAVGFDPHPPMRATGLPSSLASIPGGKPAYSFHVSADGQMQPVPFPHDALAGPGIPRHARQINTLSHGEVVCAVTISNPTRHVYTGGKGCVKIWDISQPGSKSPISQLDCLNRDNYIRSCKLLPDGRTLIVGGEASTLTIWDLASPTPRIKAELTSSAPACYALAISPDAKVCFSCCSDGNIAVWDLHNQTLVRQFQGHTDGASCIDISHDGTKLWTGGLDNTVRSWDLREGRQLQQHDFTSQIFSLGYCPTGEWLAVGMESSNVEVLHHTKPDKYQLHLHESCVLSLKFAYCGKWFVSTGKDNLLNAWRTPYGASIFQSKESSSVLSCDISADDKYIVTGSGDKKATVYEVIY
UniProt Q9Y5J9: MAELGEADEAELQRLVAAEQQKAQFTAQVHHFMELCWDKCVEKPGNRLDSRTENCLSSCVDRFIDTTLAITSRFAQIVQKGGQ
UniProt Q9Y6I9: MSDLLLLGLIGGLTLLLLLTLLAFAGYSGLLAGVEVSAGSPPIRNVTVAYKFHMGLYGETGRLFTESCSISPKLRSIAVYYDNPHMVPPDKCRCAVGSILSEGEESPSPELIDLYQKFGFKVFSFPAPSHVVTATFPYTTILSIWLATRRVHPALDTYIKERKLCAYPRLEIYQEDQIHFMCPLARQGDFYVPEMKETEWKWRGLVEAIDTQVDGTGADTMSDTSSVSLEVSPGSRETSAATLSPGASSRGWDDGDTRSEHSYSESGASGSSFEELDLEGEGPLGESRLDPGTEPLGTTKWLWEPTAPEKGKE
UniProt P07996: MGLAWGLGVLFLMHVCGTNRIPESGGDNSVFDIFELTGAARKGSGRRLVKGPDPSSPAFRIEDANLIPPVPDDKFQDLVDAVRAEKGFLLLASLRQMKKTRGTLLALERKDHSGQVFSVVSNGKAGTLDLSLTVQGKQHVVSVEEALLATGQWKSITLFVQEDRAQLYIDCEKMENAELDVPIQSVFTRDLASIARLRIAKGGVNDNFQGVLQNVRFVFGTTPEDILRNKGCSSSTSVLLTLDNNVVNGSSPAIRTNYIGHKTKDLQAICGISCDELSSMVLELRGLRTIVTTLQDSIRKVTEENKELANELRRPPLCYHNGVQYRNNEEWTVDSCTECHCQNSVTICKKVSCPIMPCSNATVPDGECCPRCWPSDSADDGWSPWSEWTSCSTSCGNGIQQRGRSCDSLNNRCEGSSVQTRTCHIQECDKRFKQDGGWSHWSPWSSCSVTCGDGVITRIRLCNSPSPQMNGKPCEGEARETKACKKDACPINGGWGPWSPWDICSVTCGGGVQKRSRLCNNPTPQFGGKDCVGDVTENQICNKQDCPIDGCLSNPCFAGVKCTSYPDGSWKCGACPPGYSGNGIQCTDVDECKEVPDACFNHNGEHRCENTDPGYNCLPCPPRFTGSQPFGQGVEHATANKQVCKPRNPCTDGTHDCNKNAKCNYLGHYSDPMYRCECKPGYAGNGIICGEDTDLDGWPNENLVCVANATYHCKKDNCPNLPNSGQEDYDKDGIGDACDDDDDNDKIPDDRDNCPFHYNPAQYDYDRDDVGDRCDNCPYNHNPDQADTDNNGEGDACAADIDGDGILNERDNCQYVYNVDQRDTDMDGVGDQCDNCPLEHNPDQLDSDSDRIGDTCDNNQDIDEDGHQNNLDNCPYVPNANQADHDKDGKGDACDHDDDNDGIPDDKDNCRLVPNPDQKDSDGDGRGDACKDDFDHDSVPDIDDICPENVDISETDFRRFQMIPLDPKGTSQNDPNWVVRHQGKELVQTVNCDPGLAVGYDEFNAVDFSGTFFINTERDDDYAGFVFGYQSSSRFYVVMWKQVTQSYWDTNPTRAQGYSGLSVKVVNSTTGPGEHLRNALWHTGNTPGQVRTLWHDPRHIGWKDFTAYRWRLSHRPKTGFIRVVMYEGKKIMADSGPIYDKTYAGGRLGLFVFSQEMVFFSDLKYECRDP
UniProt Q96N21: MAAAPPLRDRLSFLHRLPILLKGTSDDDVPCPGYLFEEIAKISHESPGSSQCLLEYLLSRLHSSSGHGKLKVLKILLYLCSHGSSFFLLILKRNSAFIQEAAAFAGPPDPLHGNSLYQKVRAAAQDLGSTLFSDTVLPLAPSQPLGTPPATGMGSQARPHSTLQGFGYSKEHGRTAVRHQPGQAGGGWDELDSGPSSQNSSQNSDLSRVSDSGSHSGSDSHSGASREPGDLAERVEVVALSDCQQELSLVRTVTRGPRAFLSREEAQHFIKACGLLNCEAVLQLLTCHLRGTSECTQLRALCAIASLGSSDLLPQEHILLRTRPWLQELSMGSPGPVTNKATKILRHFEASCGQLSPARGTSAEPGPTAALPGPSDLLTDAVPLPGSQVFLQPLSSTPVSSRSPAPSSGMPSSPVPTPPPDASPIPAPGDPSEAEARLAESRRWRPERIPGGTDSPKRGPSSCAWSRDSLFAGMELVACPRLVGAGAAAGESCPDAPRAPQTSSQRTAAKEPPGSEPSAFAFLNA
UniProt Q12800: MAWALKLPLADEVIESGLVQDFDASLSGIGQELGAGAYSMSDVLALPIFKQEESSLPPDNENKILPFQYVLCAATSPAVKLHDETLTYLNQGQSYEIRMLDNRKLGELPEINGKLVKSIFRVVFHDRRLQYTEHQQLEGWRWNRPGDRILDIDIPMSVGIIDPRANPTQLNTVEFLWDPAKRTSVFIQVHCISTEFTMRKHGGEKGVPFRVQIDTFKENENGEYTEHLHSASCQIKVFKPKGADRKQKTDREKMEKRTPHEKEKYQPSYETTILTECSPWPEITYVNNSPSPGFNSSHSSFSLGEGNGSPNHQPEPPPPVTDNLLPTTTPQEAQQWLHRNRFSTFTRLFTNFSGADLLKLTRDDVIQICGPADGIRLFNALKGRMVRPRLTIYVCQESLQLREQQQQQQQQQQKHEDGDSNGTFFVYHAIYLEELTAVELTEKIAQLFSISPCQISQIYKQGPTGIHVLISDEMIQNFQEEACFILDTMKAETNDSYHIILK
UniProt P04183: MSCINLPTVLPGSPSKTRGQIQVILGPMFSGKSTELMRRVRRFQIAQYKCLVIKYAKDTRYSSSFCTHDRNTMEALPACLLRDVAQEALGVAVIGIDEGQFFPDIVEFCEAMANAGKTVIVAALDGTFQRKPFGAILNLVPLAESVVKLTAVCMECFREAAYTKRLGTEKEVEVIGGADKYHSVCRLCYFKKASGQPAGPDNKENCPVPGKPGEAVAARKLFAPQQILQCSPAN
UniProt Q5TEJ8: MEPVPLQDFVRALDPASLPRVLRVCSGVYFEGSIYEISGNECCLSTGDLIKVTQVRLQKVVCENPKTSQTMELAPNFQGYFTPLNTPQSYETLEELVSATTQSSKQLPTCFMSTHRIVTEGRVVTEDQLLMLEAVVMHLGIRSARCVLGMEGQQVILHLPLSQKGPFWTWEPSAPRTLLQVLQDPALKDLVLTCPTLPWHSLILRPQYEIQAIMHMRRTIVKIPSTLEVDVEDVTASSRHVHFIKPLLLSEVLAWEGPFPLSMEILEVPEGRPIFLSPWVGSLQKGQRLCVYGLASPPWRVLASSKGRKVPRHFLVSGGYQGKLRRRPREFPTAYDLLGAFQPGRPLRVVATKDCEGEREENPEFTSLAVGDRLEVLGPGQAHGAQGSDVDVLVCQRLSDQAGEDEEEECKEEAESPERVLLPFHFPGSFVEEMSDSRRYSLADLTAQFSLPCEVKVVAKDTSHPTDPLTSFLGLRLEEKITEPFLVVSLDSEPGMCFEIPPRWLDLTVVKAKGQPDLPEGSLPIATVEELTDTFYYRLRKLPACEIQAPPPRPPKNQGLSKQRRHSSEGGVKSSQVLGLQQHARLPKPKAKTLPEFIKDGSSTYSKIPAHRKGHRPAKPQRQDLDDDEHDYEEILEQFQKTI
UniProt Q9NXF1: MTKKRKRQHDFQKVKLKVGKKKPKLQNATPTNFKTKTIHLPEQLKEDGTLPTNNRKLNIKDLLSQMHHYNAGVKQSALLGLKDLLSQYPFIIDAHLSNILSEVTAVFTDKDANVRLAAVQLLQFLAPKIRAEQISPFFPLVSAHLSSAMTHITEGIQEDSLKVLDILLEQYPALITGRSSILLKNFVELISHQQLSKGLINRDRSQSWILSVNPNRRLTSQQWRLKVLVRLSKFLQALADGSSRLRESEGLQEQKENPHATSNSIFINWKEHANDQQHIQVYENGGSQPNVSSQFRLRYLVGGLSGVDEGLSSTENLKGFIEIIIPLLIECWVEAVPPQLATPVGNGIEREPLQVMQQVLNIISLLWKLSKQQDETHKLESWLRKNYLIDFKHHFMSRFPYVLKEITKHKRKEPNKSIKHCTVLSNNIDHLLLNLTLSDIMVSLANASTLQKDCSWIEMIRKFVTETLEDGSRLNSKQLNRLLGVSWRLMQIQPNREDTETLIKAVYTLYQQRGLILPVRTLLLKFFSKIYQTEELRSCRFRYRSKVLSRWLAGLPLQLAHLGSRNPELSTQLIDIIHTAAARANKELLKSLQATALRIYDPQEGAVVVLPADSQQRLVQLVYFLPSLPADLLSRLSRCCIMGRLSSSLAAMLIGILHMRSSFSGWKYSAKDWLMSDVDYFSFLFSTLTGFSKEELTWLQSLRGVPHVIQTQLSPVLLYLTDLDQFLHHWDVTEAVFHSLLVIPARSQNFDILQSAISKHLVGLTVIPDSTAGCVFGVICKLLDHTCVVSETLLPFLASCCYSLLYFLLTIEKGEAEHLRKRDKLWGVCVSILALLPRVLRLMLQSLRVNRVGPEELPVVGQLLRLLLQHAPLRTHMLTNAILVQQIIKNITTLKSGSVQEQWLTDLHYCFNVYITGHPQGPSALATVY

| Target | probe-labelled cysteine peptide fold change (10 µM) | probe-labelled cysteine peptide fold change (50 µM) |
| --- | --- | --- |
| TDRD7_Q8NHU6_600_VVESLTCGK (UniProt Q8NHU6) | 0.0499 | 0.0939 |
| TGFB1I1_O43294_431_FHPDHFTCTFCLRPLTK (UniProt O43294) | 0.18 | -0.15 |
| THBD_P07204_175_ADGFLCEFHFPATCRPLAVEPGAAAAAVSITYGTPFAAR (UniProt P07204) | -0.212 | 0.339 |
| THOC2_Q8NI27_804_VPSIDVLCNEFHTPHDAAFFLSR (UniProt Q8NI27) | 0.302 | 0.138 |
| THOC1_Q96FV9_604_QIECDSEDMK (UniProt Q96FV9) | 0.077 | -0.118 |
| TERF1_P54274_118_NSAEAIIHGLSSLTACQLR (UniProt P54274) | -0.173 | -0.297 |
| TDP2_O95551_273_CGGLPNNIVDVWEFLGK (UniProt O95551) | -0.0151 | 0.216 |
| TKT_P29401_386_TVPFCSTFAAFFTR (UniProt P29401) | -0.104 | 0.203 |
| THOP1_P52888_253_EENCAILK (UniProt P52888) | 0.642 | 0.0323 |
| TCP1_P17987_218_SQMESMLISGYALNCVVGSQGMPK (UniProt P17987) | 0.131 | 0.0902 |
| THOC2_Q8NI27_28_GEFLHLCR (UniProt Q8NI27) | 0.218 | 0.149 |
| THOC6_Q86W42_279_CVNQWQLSGELK (UniProt Q86W42) | 0.114 | 0.112 |
| TLN1_Q9Y490_1661+1671_APGQLECETAIAALNSCLR (UniProt Q9Y490) | -0.213 | -0.418 |
| TK2_O00142_54_SVICVEGNIASGK (UniProt O00142) | -0.108 | 0.145 |
| TLN1_Q9Y490_1506+1509_HTSALCNSCR (UniProt Q9Y490) | 0.273 | -0.0528 |
| THOP1_P52888_350_YCVDQNLLK (UniProt P52888) | -0.000536 | -0.0392 |
| TLE3_Q04726_528_SPISQLDCLNR (UniProt Q04726) | -0.0216 | 0.0474 |
| TIMM8B_Q9Y5J9_59_TENCLSSCVDR (UniProt Q9Y5J9) | -0.228 | -0.0725 |
| TEX264_Q9Y6I9_94_CAVGSILSEGEESPSPELIDLYQK (UniProt Q9Y6I9) | -0.0286 | 0.00385 |
| TGS1_Q96RS0_28_ILCLCSR (UniProt Q96RS0) | 0.127 | 0.301 |
| THBS1_P07996_599_EVPDACFNHNGEHR (UniProt P07996) | -0.538 | -0.399 |

| Target | probe-labelled cysteine peptide fold change (10 µM) | probe-labelled cysteine peptide fold change (50 µM) |
| --- | --- | --- |
| TEPSIN_Q96N21_295_GTSECTQLR (UniProt Q96N21) | 0.354 | 0.0174 |
| TCP1_P17987_397_SLHDALCVVK (UniProt P17987) | 0.0472 | 0.0225 |
| TKFC_Q3LXA3_13+24_KLVNSVAGCADDALAGLVACNPNLQLLQGHR (UniProt Q3LXA3) | -0.303 | -0.32 |
| TFCP2_Q12800_72_ILPFQYVLCAATSPAVK (UniProt Q12800) | 0.339 | 0.0755 |
| TEP1_Q99973_2275_EADDTCIPR (UniProt Q99973) | -0.137 | -0.236 |
| THOC3_Q96J01_326_RPLLAFACDDK (UniProt Q96J01) | -0.129 | -0.0587 |
| TK1_P04183_185_YHSVCR (UniProt P04183) | 0.0851 | -0.0422 |
| THSD7A_Q9UPZ6_1459_SRPVIIQELENQHLCPEQMLETK (UniProt Q9UPZ6) | 0.0724 | 0.0865 |
| TIPRL_O75663_75_CVNNYQGMLK (UniProt O75663) | -0.0238 | 0.0281 |
| TES_Q9UGI8_364_NHAVVCQGCHNAIDPEVQR (UniProt Q9UGI8) | 0.201 | -0.124 |
| TLK2_Q86UE8_737_IDVQQLACDPYLLPHIR (UniProt Q86UE8) | 0.018 | 0.143 |
| TLE3_Q04726_26_FTVAESCDR (UniProt Q04726) | 0.0108 | 0.0838 |
| TIMELESS_Q9UNS1_1126_VPGEQGSDEEHCK (UniProt Q9UNS1) | -0.446 | -0.828 |
| THEMIS2_Q5TEJ8_395_LEVLGPGQAHGAQGSDVDVLVCQR (UniProt Q5TEJ8) | -0.303 | -0.0555 |
| TECPR2_O15040_282_LESPNSGSCSLPER (UniProt O15040) | -0.157 | -0.107 |
| THBS1_P07996_413_CEGSSVQTR (UniProt P07996) | -0.33 | -0.273 |
| TLE4_Q04727_32_FTISESCDR (UniProt Q04727) | -0.108 | 0.219 |
| TEX264_Q9Y6I9_68_LFTESCSISPK (UniProt Q9Y6I9) | -0.0839 | -0.424 |
| TEC_P42680_625_TIDELVECEETFGR (UniProt P42680) | -0.192 | -0.313 |
| THOC6_Q86W42_214_EVQTIEVYKHEECSR (UniProt Q86W42) | 0.0649 | 0.0934 |
| THADA_Q6YHU6_42_NLASLLLHCVQLTDGVSQIHYIK (UniProt Q6YHU6) | 0.194 | 0.238 |

| Target | probe-labelled cysteine peptide fold change (10 µM) | probe-labelled cysteine peptide fold change (50 µM) |
| --- | --- | --- |
| THBS1_P07996_171_AQLYIDCEK (UniProt P07996) | -0.252 | -0.258 |
| TCP1_P17987_385_GANDFMCDEMER (UniProt P17987) | -0.157 | 0.0013 |
| THEMIS2_Q5TEJ8_545_KLPACEIQAPPPRPPK (UniProt Q5TEJ8) | -0.189 | -0.294 |
| THG1L_Q9NWX6_47_DFEADDTCLAHCWVVVR (UniProt Q9NWX6) | -0.0809 | 0.0136 |
| THBD_P07204_265_CQCPAGAALQADGR (UniProt P07204) | -0.0316 | 0.0778 |
| TK1_P04183_206_ENCPVPGKPGEAVAAR (UniProt P04183) | -0.0233 | -0.211 |
| THOP1_P52888_427+434_YGHAACFGLQPGCLR (UniProt P52888) | -0.0271 | -0.158 |
| THY1_P04216_28_VTSLTACLVDQSLR (UniProt P04216) | -0.159 | 0.239 |
| TKFC_Q3LXA3_155_RGLCGTVLIHK (UniProt Q3LXA3) | 0.0371 | 0.16 |
| TGFB1I1_O43294_228+231_GLCGSCNKPIAGQVVTALGR (UniProt O43294) | -0.105 | -0.272 |
| TGM2_P21980_371_SEGTYCCGPVPVR (UniProt P21980) | 0.00473 | -0.293 |
| THBS1_P07996_718_DNCPNLPNSGQEDYDK (UniProt P07996) | -0.319 | -0.0541 |
| TLN1_Q9Y490_2161_ALEATTEHIRQELAVFCSPEPPAK (UniProt Q9Y490) | -0.0388 | 0.0606 |
| THUMPD1_Q9NXG2_169_MLPISGTCK (UniProt Q9NXG2) | -0.117 | 0.00242 |
| TDP1_Q9NUW8_48_YTCSEAQK (UniProt Q9NUW8) | -0.337 | -0.359 |
| TIGAR_Q9NQ88_256_EVKPTVQCICMNLQDHLNGLTETR (UniProt Q9NQ88) | 0.187 | -0.00565 |
| THAP12_O43422_68_HFETSMICR (UniProt O43422) | 0.0308 | -0.127 |
| THOC6_Q86W42_173_GHTDYIHCLALR (UniProt Q86W42) | 0.354 | 0.198 |
| TEPSIN_Q96N21_273_ACGLLNCEAVLQLLTCHLR (UniProt Q96N21) | 0.821 | 2.62 |
| TELO2_Q9Y4R8_568_TCVVGFAGLR (UniProt Q9Y4R8) | 0.142 | -0.259 |
| THOC6_Q86W42_314_AQVPGSSPGLLSLSLNQQPAAPECK (UniProt Q86W42) | 0.105 | -0.0567 |

| Target | probe-labelled cysteine peptide fold change (10 µM) | probe-labelled cysteine peptide fold change (50 µM) |
| --- | --- | --- |
| TIMM10B_Q9Y5J6_52_ALDAEEEACLHSCAGK (UniProt Q9Y5J6) | 0.141 | -0.228 |
| TEX10_Q9NXF1_454_DCSWIEMIR (UniProt Q9NXF1) | 0.104 | 0.103 |
| TIGAR_Q9NQ88_161_EQFSQGSPSNCLETSLAEIFPLGK (UniProt Q9NQ88) | -0.0701 | -0.804 |
| THBD_P07204_267_CQCPAGAALQADGR (UniProt P07204) | 0.107 | 0.323 |
| TFCP2_Q12800_395_LTIYVCQESLQLR (UniProt Q12800) | 0.279 | 0.303 |
| THBS1_P07996_657_NPCTDGTHDCNK (UniProt P07996) | -0.52 | -0.374 |
| TKT_P29401_225_RCEAFGWHAIIVDGHSVEELCK (UniProt P29401) | 0.0132 | 0.0307 |
| TIMM50_Q3ZCQ8_236_DISCLNRDPAR (UniProt Q3ZCQ8) | -0.0775 | -0.032 |
| TFB2M_Q9H5Q4_149_VIHCDFFK (UniProt Q9H5Q4) | 0.0456 | -0.234 |
| TGFBRAP1_Q8WUH2_32_VNIECVECCGR (UniProt Q8WUH2) | -0.197 | 0.0448 |
| TLN1_Q9Y490_1671_APGQLECETAIAALNSCLR (UniProt Q9Y490) | 0.0454 | -0.0484 |
| THYN1_Q9P016_118_LGEEAFFYHSNCK (UniProt Q9P016) | -0.103 | -0.175 |
| TIMM29_Q9BSF4_130_YVNLGLCSLVYEAPFDAQASLYQAR (UniProt Q9BSF4) | 0.167 | 0.332 |
| THOP1_P52888_175_KLSLLCIDFNK (UniProt P52888) | -0.00153 | 0.0417 |
| TEPSIN_Q96N21_479_DSLFAGMELVACPR (UniProt Q96N21) | -0.077 | -0.713 |
| THOC2_Q8NI27_743_DALLDHDLALPLCLLMAQQR (UniProt Q8NI27) | 0.093 | 0.0571 |
| TDRD7_Q8NHU6_699+706_HMTSECFVSLPFCGK (UniProt Q8NHU6) | -0.116 | -0.109 |
| TDRD7_Q8NHU6_284_EDLNQGILQQFEHWPHICTVEK (UniProt Q8NHU6) | 0.12 | 0.321 |
| THUMPD3_Q9BV44_391_PSWGLPIDAVQWDICNLPLR (UniProt Q9BV44) | -0.265 | -0.178 |

Record cards (already shown):
TKT_P29401_225_RCEAFGWHAIIVDGHSVEELCK (UniProt P29401) in the list: probe-labelled cysteine peptide fold change (10 µM) = 0.0132; probe-labelled cysteine peptide fold change (50 µM) = 0.0307
TDRD7_Q8NHU6_699+706_HMTSECFVSLPFCGK (UniProt Q8NHU6) in the list: probe-labelled cysteine peptide fold change (10 µM) = -0.116; probe-labelled cysteine peptide fold change (50 µM) = -0.109
TDRD7_Q8NHU6_284_EDLNQGILQQFEHWPHICTVEK (UniProt Q8NHU6) in the list: probe-labelled cysteine peptide fold change (10 µM) = 0.12; probe-labelled cysteine peptide fold change (50 µM) = 0.321
TEX10_Q9NXF1_454_DCSWIEMIR (UniProt Q9NXF1) in the list: probe-labelled cysteine peptide fold change (10 µM) = 0.104; probe-labelled cysteine peptide fold change (50 µM) = 0.103
